Data as given in article PMC11915870.
No constants are given. Whether binding was seen depends on the method and setting. Binding seen in cells or lysates may run through a third protein. A yes stands for co-enrichment or nearness to the bait. Other partners may have been found.

Chains of the proteins cited; added tags and fusions are not shown.
UniProt Q16666: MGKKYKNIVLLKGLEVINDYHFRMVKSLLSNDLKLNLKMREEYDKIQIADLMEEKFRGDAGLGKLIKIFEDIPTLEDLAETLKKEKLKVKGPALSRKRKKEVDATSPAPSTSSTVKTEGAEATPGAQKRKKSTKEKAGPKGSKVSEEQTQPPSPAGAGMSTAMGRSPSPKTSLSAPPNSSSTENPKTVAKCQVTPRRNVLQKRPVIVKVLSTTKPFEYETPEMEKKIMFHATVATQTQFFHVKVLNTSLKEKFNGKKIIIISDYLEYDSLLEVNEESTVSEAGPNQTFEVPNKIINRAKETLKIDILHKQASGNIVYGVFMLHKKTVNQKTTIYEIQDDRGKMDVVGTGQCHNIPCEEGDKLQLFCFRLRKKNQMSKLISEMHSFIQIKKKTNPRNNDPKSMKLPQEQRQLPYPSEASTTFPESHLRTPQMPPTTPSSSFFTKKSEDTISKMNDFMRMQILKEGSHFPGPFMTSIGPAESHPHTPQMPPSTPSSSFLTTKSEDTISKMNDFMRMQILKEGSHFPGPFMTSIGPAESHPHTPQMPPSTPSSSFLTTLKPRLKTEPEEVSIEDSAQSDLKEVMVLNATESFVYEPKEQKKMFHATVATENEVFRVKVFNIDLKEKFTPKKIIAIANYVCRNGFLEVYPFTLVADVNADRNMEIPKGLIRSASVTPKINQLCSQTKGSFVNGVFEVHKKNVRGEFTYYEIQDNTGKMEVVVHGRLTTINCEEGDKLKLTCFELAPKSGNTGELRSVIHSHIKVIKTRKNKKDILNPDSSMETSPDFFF
UniProt Q13547: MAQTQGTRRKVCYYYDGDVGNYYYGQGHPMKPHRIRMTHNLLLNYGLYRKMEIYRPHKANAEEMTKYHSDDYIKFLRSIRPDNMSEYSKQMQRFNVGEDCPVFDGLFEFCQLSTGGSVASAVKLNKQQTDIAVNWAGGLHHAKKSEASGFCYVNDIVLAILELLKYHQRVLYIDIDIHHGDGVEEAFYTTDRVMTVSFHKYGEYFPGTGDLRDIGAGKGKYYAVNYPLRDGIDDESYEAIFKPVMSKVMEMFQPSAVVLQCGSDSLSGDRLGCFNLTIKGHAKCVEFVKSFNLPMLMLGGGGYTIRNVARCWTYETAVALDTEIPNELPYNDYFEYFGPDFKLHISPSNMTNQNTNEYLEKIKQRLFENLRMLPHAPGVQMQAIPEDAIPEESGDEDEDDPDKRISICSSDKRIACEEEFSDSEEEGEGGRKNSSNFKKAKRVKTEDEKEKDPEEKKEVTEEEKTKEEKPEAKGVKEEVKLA
UniProt Q92769: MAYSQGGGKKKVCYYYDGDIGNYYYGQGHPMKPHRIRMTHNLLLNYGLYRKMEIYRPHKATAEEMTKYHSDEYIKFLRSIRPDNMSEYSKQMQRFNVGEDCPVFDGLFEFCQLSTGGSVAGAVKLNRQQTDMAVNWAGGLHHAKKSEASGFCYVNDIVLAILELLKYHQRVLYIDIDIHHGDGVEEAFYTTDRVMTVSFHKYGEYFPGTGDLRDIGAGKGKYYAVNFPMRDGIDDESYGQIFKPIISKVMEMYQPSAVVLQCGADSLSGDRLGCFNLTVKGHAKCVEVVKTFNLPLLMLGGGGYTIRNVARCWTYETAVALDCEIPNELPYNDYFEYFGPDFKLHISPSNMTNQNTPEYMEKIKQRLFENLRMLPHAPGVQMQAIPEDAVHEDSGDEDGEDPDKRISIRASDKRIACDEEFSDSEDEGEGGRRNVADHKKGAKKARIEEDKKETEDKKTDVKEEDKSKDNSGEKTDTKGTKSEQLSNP

Biological target: Interferon-γ-inducible protein 16 (IFI16), endogenous (human (endogenous in BCBL1, BC3, BJAB, iSLK, iSLK.219, U2OS)) (UniProt Q16666)
Test: affinity purification with mass spectrometry; IP of endogenous IFI16 from BCBL1 whole-cell lysate with anti-IFI16 mouse monoclonal or rabbit polyclonal antibody, control IgG (Rb) in parallel; on-bead trypsin digestion, LC-MS/MS; two biological replicates

Row | Substance | binding
1 | HDAC1, endogenous (from UniProt Q13547 1-482) (enzyme) | binds
2 | HDAC2, endogenous (from UniProt Q92769 1-488) (enzyme) | binds
